Measurements reported in PubChem BioAssay AID686937 (Drosophila RNAi Screening Center, 2013)

Assay: 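Genes whose loss weakens secretory pathway function in fly cells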 (primary screen)
System: Drosophila S2 cells expressing secreted horseradish peroxidase
Reagents: long dsRNA against Drosophila genes
Timing: about 5.5 days (5 days dsRNA, then 12 h reporter induction)
Treatment: reporter expression induced after 5 days of dsRNA, read 12 h later; inducer not stated
Measurement: 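Chemiluminescent measurement of peroxidase in the medium 12 h after reporter induction, following 5 days of dsRNA, given as a z-score per plate; higher means more secretion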
Scale: z-score: higher = more reporter secreted into medium
In all, the deposit lists about 23,000 reagents; below is an unselected part of those with a known target gene and a result. 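Reduced-secretion tags in replicate 1 do not always agree with the z-scores; no criterion for assigning the tags was given.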 The numbers tell different reagents against one gene apart. A plus sign joins genes that one reagent is predicted to hit. Reagent sequences are not shown. Not stated in the record: the amount of reagent.

gene	dsRNA no.	z-score, replicate 1	z-score, replicate 2	z-score, replicate 3	z-score, replicate 4	phenotype, replicate 1
Nha1 (Na[+]/H[+] hydrogen antiporter 1)	1	0.27	0.43			
CG4882	1	-0.11	-0.49			
dock (dreadlocks)	1	0.38	0.48			
CG9760	1	0.24	0.33			
Rack1 (Receptor of activated protein kinase C 1)	1	0.52	0.61			
wmd (wing morphogenesis defect)	1	0.59	0.54			
CG17097	1	0.04	0.31			
CG3916	1	0.33	0.06			
Indy-2 + CG33934	1	0.35	0.29			
Indy-2 + CG33934	2	0.28	0.52			
rumpel	1	0.21	0.36			
Cpr49Aa (Cuticular protein 49Aa)	1	0.29	0.48			
Gr64a (Gustatory receptor 64a)	1	-0.07	0.45			
CG13016	1	0.38	0			
CG5515	1	0.22	0.25			
CG12182	1	-0.03	0.44			
CG10137	1	-0.23	-0.29			
CG10137	2	0.04	0.12			
Vajk4	1	0.17	0.3			
Vajk4	2	0.14	0.09			
CG33158	1	0.78	0.67			
CG33158	2	0.37	0.2			
CG33158	3	-0.01	0.17			
wbl (windbeutel)	1	0.33	0.26			
ham (hamlet)	1	0.5	0.08			
ham (hamlet)	2	0.01	0.25			
ham (hamlet)	3	0.24	0.28	-0.04	-0.28	
ham (hamlet)	4	0.07	0.26			
CG13386	1	0.14	0.22			
CG31835 + CG42585	1	-0.18	0.4			
CG6583	1	-0.04	0.13			
HERC2 (HECT and RLD domain containing protein 2)	1	0.49	0.19			
gcl (germ cell-less)	1	0.39	0.27			
oc (ocelliless)	1	0.42	0.78			
CG33234	1	0.13	0.29			
Lcp65APsi (pseudo)	1	0.34	-0.02			
Lcp65APsi (pseudo)	2	0.37	0.35			
Ptp69D (Protein tyrosine phosphatase 69D)	1	0.28	0.46			
CG32668	1	-0.05	0.4			
Pitslre	1	-3.15	-2.06			reduced secretion
MTF-1 (Metal response element-binding Transcription Factor-1)	1	0.09	0.39			
MTF-1 (Metal response element-binding Transcription Factor-1)	2	-3.44	0.44	0.49	-3.23	reduced secretion
MTF-1 (Metal response element-binding Transcription Factor-1)	3	-6.1	-4.84			reduced secretion
Prim2 (DNA primase subunit 2)	1	-0.15	-0.37			
CG17618 (retired record) + CG45049	1	0.21	0.25			
CG17618 (retired record) + CG45049	2	-1.35	-1.77			reduced secretion
beat-IIIc (beaten path IIIc)	1	0.72	0.1			
beat-IIIc (beaten path IIIc)	2	-0.17	0.02			
CG10866	1	0.25	0.39			
udd (under-developed)	1	0.26	0.58			
eas (easily shocked)	1	0.41	0.51			
Josd (Josephin domain containing)	1	0.44	0.46			
CG14855	1	0.63	0.91			
slpr (slipper)	1	0.32	0.42			
SkpA (SKP1-related A)	1	0.25	0.01			
Chrac-16 (Chromatin accessibility complex 16kD protein)	1	0.39	0.18			
Gen (XPG-like endonuclease)	1	0.09	0.18			
CG32036	1	0.48	-0.14			
Mal-A2 (Maltase A2)	1	0.16	0.17			
scramb2 (scramblase 2)	1	0.23	0.3			
Vha16-2 (Vacuolar H[+] ATPase 16kD subunit 2)	1	0.39	0.25			
CG7970	1	0.03	0.24			
CG30098	1	-0.02	0.55			
CG10384	1	0.17	0.11			
CG10384	2	-0.86	-0.51			
MetRS (Methionyl-tRNA synthetase)	1	0.14	0.41			
DIP-alpha (Dpr-interacting protein alpha)	1	-1	0.29			
DIP-alpha (Dpr-interacting protein alpha)	2	-1.53	-1.44			reduced secretion
Arv1 (ACAT-related protein required for viability 1)	1	0.31	0.23			
CG15024	1	0.4	0.54			
CG17658	1	0.53	0.31			
CG10591	1	0.53	0.51			
CG15554	1	0.33	0.36			
MRP (Multidrug-Resistance like Protein 1)	1	0.27	0.29			
Crtp (Caldesmon-related protein)	1	0.47	0.24			
CG43102	1	0.42	0.42			
CG43102	2	0.51	0.49	-0.01	0.25	
CG43102	3	0.57	0.42			
CG1631	1	0.36	0.24			
Prp16 (pre-mRNA processing factor 16)	1	-1.54	-0.56			reduced secretion
Prp16 (pre-mRNA processing factor 16)	2	-1.81	-2.22			reduced secretion
CG14963	1	0.47	0.18			

In a second layout: entries from further up
| gene | dsRNA no. | z-score, replicate 1 | z-score, replicate 2 | z-score, replicate 3 | z-score, replicate 4 | phenotype, replicate 1 |
| --- | --- | --- | --- | --- | --- | --- |
| Mal-A2 (Maltase A2) | 1 | 0.16 | 0.17 | – | – | – |
| scramb2 (scramblase 2) | 1 | 0.23 | 0.3 | – | – | – |
| Vha16-2 (Vacuolar H[+] ATPase 16kD subunit 2) | 1 | 0.39 | 0.25 | – | – | – |
| CG7970 | 1 | 0.03 | 0.24 | – | – | – |
| CG30098 | 1 | -0.02 | 0.55 | – | – | – |
| CG10384 | 1 | 0.17 | 0.11 | – | – | – |
| CG10384 | 2 | -0.86 | -0.51 | – | – | – |
| MetRS (Methionyl-tRNA synthetase) | 1 | 0.14 | 0.41 | – | – | – |
| DIP-alpha (Dpr-interacting protein alpha) | 1 | -1 | 0.29 | – | – | – |
| DIP-alpha (Dpr-interacting protein alpha) | 2 | -1.53 | -1.44 | – | – | reduced secretion |
| Arv1 (ACAT-related protein required for viability 1) | 1 | 0.31 | 0.23 | – | – | – |
| CG15024 | 1 | 0.4 | 0.54 | – | – | – |
